# Reference: the supplement of paper PMC12819154, “High-throughput peptide-centric local stability assay extends protein–ligand identification to membrane proteins, tissues and bacteria” (Nature Structural & Molecular Biology, 2025)
# Some of the results follow. Small differences around the control level are noise.
# Columns and labels:
# UniProt Q15413 = assay: log2 fold change of tryptic peptide abundance, ligand vs vehicle (limited proteolysis) (log2 ratio); higher = more trypsin-susceptible (destabilized); conditions: peptide sequence: MAPLYNLPR; peptide start residue: 3605; ligand concentration: 5 uM; sample: K562 cleared lysate
# UniProt Q16445 = assay: as above; conditions: peptide sequence: LRPGFGGAVTEVK; peptide start residue: 47; ligand concentration: 5 uM; sample: K562 cleared lysate
compound,measurement,setting,value
Cc1nc(Nc2ncc(C(=O)Nc3c(C)cccc3Cl)s2)cc(N2CCN(CCO)CC2)n1 [dasatinib],log2 fold change,UniProt Q15413,-0.0605
same,log2 fold change,UniProt Q16445,-0.118
